Test [1] deals with murine beta-dystroglycan extracellular domain (mbeta-DG ECD), HPC4 tagged (mouse). The test can be described thus: dot blot on nitrocellulose.
The target in test [2] is beta-DG in unfixed frozen human muscle tissue sections (human) (UniProt Q14118). The test can be described thus: immunofluorescence on unfixed frozen muscle tissue sections.
Test [3] has as its target beta-DG in unfixed frozen mouse muscle tissue sections (mouse) (UniProt Q62165). Described as above.
Test [4] has as its target murine beta-dystroglycan extracellular domain (mbeta-DG ECD), HPC4 tagged (mouse). The test can be described thus: sequential Biacore; antibody on CM5 chip, LG-4/5 then beta-DG in flow. Background: In SPR one partner is held on a chip, and binding of the other changes the refractive index at the surface.
The target is the same in test [5]. The test can be described thus: dot blot: protein dotted on nitrocellulose, probed with the antibody.
For test [6] the target is unchanged. Nature of the test: sequential SPR (Biacore): antibody immobilised on a CM5 chip, murine LG-4/5 and then murine beta-DG flowed over.
Test [7] shares this target. Nature of the test: phage ELISA; phage monoclonal antibody on coated antigen.
Test [8] addresses laminin-2 (LG-4/5) in unfixed frozen mouse muscle tissue sections (mouse). The test can be described thus: immunofluorescence on unfixed frozen muscle tissue sections.

By UniProt entry, the sequences of proteins in these tests, tags left out. Where a name states a change or a piece, a line headed by the entry shows the natural chain unless it says otherwise.
UniProt Q14118: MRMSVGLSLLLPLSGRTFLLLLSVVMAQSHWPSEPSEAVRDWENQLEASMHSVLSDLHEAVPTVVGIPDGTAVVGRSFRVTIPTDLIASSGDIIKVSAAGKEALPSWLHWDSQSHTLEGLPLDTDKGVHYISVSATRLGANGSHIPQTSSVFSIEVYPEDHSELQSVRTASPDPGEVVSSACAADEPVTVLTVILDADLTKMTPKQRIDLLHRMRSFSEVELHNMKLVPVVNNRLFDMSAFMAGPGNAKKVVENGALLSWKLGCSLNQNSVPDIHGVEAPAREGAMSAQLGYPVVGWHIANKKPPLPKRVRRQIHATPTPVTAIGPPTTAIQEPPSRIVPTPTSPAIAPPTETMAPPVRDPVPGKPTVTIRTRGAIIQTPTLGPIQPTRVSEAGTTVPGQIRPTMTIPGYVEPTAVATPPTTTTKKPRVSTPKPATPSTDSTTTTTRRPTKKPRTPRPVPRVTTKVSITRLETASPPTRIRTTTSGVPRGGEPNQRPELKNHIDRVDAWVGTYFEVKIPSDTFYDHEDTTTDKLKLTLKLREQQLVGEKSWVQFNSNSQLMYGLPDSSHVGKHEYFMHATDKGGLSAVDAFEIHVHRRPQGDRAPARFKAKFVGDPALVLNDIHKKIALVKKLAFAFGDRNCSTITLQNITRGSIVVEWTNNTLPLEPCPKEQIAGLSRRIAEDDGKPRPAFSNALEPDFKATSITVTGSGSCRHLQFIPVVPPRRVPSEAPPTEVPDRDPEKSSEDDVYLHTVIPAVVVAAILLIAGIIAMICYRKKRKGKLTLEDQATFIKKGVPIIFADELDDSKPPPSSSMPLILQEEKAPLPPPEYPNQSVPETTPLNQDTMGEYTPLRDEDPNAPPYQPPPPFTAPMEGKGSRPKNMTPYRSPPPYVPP
UniProt Q62165: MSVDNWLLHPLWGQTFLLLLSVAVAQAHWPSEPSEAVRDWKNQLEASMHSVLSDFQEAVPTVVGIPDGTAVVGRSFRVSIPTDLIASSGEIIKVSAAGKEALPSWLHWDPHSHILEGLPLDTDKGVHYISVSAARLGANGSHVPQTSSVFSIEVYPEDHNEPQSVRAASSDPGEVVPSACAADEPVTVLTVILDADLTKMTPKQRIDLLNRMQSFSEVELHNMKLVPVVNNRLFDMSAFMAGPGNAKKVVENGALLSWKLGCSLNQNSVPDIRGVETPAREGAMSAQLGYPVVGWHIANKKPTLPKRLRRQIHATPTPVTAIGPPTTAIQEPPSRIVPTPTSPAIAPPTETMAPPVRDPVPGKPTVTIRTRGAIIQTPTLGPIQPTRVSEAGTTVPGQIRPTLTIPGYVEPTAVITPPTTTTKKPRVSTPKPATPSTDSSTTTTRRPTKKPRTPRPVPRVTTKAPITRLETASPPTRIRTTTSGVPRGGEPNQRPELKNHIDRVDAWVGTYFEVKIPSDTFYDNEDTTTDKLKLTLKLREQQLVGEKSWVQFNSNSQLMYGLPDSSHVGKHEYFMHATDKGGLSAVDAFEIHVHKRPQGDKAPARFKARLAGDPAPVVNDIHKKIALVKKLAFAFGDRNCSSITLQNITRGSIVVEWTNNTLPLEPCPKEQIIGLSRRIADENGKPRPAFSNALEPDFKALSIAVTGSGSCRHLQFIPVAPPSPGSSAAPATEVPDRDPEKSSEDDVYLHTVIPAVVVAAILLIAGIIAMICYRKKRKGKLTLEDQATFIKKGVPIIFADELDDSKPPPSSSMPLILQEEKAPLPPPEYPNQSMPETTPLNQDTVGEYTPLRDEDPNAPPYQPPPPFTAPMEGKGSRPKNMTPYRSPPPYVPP

No constants are given. Whether binding was seen depends on the method and setting. A result given as binding can be weak or reduced; the word gives no strength.

B1: anti-beta-DG antibody derived from hybridoma clone AS19 (antibody, V domains shown)
VH: QVQLQQSGPELVKPGASVKMSCKASGFTFTDSVISWVKQRTGQGLEWIGEIYPGSGSIYYNEKFKGKATLTADKSSNTAYMQLRSLTSEDSAVYFCAMRRSYWGQGTLVTVSA
VL: DVLMTQTPLSLPVSLGDQASISCRSSQSIVHSNGNTYLEWYLQKPGQSPKLLIYKVSNRFSGVPDRFSGSGSGTDFTLKISRVEAEDLGVYYCFQGSHVPLTFGAGTKLELK
notes: Hybridoma monoclonal antibody (detected with anti-mouse IgG)
Turning to B1, the binding result in test [1], in test [2], in test [3], in test [4], in test [5] and in test [6] was “binds” throughout.

B2: anti-beta-DG antibody derived from phage display clone B04 (antibody, V domains shown)
VH: QVQLQQSGGGLVQPGGSLRLSCAASGFTFSSYAMSWVRQAPGKGLEWVSAISGSGGSTYYADSVKGRFTVSRDNSKNTLYLQMNSLRAEDTAVYYCARLGYCSSTSCYLSAFDIWGQGTMVTVSS
VL: EIVLTQSPSTLSASVGDRVTITCRASQSISSWLAWYQQKPGKAPKLLIYDASSLESGVPSRFSGSGSGTEFTLTISSLQPDDFATYYCQQYNSYPLTFGGGTKVEIK
notes: Phage display clone
In the case of B2, the binding entry in test [7] is reported as “binds”.

B3: bispecific antibody C5C6: anti-beta-DG(AS30) x anti-laminin-2(C3), CODV with 10-10-0-0 linker (bispecific antibody, IgG1, not shown: a dimerising Fc or GST)
heavy: QIQLQQSGPELVKPGASVKMSCEASGFTFTDSVITWVKQRPGQGLEWIGEIYPGSGNFYYNEKFKGKATLTADKSSNTAYMQLRSLTSEDSAVYFCAMRRSSWGQGTLVTVSADVMLVESGGDLVKPGGSLKLSCAASGFTFSSYTMSWVRQTPEKRLEWVASISSGGGNTYYPDSVKGRFTISRDNAKNNLYLQMSSLRSEDTALYYCARFDYGSSLDSWGQGTTLTVSS
light: DIVLTQSPATLSVTPGDSVSLSCRASQSISNNLHWYQQKSHESPRLLIKYASQSISGIPSRFSGSGSGTDFTLSINSVETEDFGMYFCQQSKNWPRTFGGGTKLEIKGGSGSSGSGGDVLMTQTPLSLPVSLGDQASISCRSSQTIVHSNSKTYLEWYLQKPGQSPKLLIYKVSNRFSGVPDRFSGSGSGTDFTLKISRVEAEDLGVYYCFQGSHVPLTFGAGTKLELKGGSGSSGSGG
With B3, the binding entry in test [4] and in test [6] was “binds” in each case.

B4: bispecific antibody T1T2: anti-beta-DG(AS19) x anti-laminin-2(C3), TBTI with (GGGGS)2 linker (bispecific antibody)
heavy: QVQLQQSGPELVKPGASVKMSCKASGFTFTDSVISWVKQRTGQGLEWIGEIYPGSGSIYYNEKFKGKATLTADKSSNTAYMQLRSLTSEDSAVYFCAMRRSYWGQGTLVTVSAGGGGSGGGGSDVMLVESGGDLVKPGGSLKLSCAASGFTFSSYTMSWVRQTPEKRLEWVASISSGGGNTYYPDSVKGRFTISRDNAKNNLYLQMSSLRSEDTALYYCARFDYGSSLDSWGQGTTLTVSS
light: DVLMTQTPLSLPVSLGDQASISCRSSQSIVHSNGNTYLEWYLQKPGQSPKLLIYKVSNRFSGVPDRFSGSGSGTDFTLKISRVEAEDLGVYYCFQGSHVPLTFGAGTKLELKGGGGSGGGGSDIVLTQSPATLSVTPGDSVSLSCRASQSISNNLHWYQQKSHESPRLLIKYASQSISGIPSRFSGSGSGTDFTLSINSVETEDFGMYFCQQSKNWPRTFGGGTKLEIK
notes: also called AS19xC3 in TBTI; biAb (AS19xC3); not shown: IgG1 heavy chain constant region: murine IgG1 (GenBank AAA75163.1) or human IgG1 (Genbank Q569F4); murine IgG backbone i; kappa light chain constant region: murine kappa chain (Genbank BAB33404) or human kappa chain (Genbank Q502W4)
With B4, the binding result in test [4] and in test [6] was “binds” throughout.

B5: bispecific antibody T5T6: anti-beta-DG(AS30) x anti-laminin-2(C3), TBTI with (GGGGS)2 linker (bispecific antibody, not shown: a dimerising Fc or GST)
heavy: QIQLQQSGPELVKPGASVKMSCEASGFTFTDSVITWVKQRPGQGLEWIGEIYPGSGNFYYNEKFKGKATLTADKSSNTAYMQLRSLTSEDSAVYFCAMRRSSWGQGTLVTVSAGGGGSGGGGSDVMLVESGGDLVKPGGSLKLSCAASGFTFSSYTMSWVRQTPEKRLEWVASISSGGGNTYYPDSVKGRFTISRDNAKNNLYLQMSSLRSEDTALYYCARFDYGSSLDSWGQGTTLTVSS
light: DVLMTQTPLSLPVSLGDQASISCRSSQTIVHSNSKTYLEWYLQKPGQSPKLLIYKVSNRFSGVPDRFSGSGSGTDFTLKISRVEAEDLGVYYCFQGSHVPLTFGAGTKLELKGGGGSGGGGSDIVLTQSPATLSVTPGDSVSLSCRASQSISNNLHWYQQKSHESPRLLIKYASQSISGIPSRFSGSGSGTDFTLSINSVETEDFGMYFCQQSKNWPRTFGGGTKLEIK
Turning to B5, the binding entry in test [4] and in test [6] was “binds” each time.

B6: anti-laminin-2 antibody derived from hybridoma clone C21 (antibody, V domains shown)
VH: EVMLVESGGGLVKPGGSLKLSCAASGFTFSSYTMSWVRQTPEKRLEWVATISSGGDNTYYPDSVKGRFTISRDNAKNNLYLQMSSLRSEDTALYYCARFDYGSSLDCWGQGTTLTVSS
VL: DIVLTQSPATLSVTPGDSVSLSCRASQSISNYLHWYQQKSHESPRLLIKYASQSISGIPSRFSGSGSGTDFTLSINSVETEDFGMYFCQQSKSWPRTFGGGTELEIK
notes: Hybridoma monoclonal antibody (detected with anti-mouse IgG); also called anti-laminin-2(C21)
On to B6, for which, in test [8], the binding entry was “binds”.

B7: anti-laminin-2 antibody derived from hybridoma clone C3 (antibody, V domains shown)
VH: DVMLVESGGDLVKPGGSLKLSCAASGFTFSSYTMSWVRQTPEKRLEWVASISSGGGNTYYPDSVKGRFTISRDNAKNNLYLQMSSLRSEDTALYYCARFDYGSSLDSWGQGTTLTVSS
VL: DIVLTQSPATLSVTPGDSVSLSCRASQSISNNLHWYQQKSHESPRLLIKYASQSISGIPSRFSGSGSGTDFTLSINSVETEDFGMYFCQQSKNWPRTFGGGTKLEIK
notes: Hybridoma monoclonal antibody (detected with anti-mouse IgG); also called C03; anti-laminin-2(C3)
In the case of B7, in test [8], the binding result is “binds”.

These data come from patent publication US20180237511A1 (Sanofi, published 2018).
